The structures given here were assigned with low confidence; some may be wrong.
Target: S1PR2 (Homo sapiens, UniProt O95136)
Assay: competitive [^32P]S1P binding assay on cell membranes, S1PR2
Settings: read-out: IC50 S1PR2; Table 5

Chains of the proteins cited; added tags and fusions are not shown.
UniProt O95136, whole entry: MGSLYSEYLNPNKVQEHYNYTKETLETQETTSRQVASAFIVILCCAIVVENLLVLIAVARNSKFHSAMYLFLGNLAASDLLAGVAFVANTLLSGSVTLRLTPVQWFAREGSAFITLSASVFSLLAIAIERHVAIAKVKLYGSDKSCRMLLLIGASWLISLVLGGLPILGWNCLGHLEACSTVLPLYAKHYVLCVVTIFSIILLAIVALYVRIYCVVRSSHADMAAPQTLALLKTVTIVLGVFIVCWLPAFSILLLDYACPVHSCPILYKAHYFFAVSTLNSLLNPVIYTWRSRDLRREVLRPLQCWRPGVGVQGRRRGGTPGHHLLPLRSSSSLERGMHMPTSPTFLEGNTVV

IC50: 4.8 nM
Structure (SMILES): COc1cc(OC)c(NC(=O)Cn2c(=O)n(CC(=O)Nc3cccc(O)c3)c(=O)c3ccccc32)cc1Cl

Reference: patent publication US20200369626A1 (Washington University, priority 2019, published 2020)
